The other results are listed elsewhere or left out. Most entries show no effect beyond the scatter of the controls.
The targets below were run with Cc1nc(Nc2ncc(C(=O)Nc3c(C)cccc3Cl)s2)cc(N2CCN(CCO)CC2)n1 [dasatinib] (assay: log2 fold change of tryptic peptide abundance, ligand vs vehicle (limited proteolysis) (log2 ratio); higher = more trypsin-susceptible (destabilized)). Details: ligand concentration: 5 uM; sample: K562 cleared lysate.

By UniProt entry, the sequences of proteins in these tests, tags left out. Where a name states a change or a piece, a line headed by the entry shows the natural chain unless it says otherwise.
UniProt Q9NSY0: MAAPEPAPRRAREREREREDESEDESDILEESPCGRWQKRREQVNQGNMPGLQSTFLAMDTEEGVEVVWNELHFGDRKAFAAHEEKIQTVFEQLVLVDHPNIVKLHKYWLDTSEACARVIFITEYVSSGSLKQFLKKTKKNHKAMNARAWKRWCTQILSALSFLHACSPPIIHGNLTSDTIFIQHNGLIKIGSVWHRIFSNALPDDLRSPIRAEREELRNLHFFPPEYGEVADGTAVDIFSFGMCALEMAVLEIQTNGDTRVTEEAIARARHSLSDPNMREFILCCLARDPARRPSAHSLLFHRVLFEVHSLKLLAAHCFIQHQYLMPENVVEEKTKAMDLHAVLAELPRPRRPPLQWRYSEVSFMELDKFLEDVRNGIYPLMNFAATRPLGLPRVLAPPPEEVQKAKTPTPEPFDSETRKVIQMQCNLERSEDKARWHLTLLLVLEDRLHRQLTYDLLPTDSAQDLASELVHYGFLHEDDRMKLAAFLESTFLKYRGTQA
UniProt Q9NQG6: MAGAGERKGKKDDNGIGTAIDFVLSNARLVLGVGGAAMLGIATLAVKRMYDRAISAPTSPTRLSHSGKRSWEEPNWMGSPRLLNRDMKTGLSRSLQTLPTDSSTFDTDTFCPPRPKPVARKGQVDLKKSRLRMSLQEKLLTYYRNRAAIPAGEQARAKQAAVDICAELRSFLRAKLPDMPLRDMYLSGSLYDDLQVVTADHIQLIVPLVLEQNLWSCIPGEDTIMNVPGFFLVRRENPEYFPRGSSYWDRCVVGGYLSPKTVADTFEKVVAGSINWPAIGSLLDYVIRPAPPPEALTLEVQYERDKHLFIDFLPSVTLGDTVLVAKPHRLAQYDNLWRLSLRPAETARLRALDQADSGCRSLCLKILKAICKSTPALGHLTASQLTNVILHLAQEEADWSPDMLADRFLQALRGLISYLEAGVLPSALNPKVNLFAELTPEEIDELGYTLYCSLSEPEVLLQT
UniProt Q9NQG5: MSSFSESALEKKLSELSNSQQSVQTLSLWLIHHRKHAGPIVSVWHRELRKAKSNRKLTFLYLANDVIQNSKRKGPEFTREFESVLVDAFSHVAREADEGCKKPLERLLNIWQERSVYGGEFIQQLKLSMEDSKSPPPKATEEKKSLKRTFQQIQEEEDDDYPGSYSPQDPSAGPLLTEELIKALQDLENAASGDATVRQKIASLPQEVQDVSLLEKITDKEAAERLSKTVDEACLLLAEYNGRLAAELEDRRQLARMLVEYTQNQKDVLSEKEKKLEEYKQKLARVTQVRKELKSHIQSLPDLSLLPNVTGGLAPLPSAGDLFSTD
UniProt Q9NW08: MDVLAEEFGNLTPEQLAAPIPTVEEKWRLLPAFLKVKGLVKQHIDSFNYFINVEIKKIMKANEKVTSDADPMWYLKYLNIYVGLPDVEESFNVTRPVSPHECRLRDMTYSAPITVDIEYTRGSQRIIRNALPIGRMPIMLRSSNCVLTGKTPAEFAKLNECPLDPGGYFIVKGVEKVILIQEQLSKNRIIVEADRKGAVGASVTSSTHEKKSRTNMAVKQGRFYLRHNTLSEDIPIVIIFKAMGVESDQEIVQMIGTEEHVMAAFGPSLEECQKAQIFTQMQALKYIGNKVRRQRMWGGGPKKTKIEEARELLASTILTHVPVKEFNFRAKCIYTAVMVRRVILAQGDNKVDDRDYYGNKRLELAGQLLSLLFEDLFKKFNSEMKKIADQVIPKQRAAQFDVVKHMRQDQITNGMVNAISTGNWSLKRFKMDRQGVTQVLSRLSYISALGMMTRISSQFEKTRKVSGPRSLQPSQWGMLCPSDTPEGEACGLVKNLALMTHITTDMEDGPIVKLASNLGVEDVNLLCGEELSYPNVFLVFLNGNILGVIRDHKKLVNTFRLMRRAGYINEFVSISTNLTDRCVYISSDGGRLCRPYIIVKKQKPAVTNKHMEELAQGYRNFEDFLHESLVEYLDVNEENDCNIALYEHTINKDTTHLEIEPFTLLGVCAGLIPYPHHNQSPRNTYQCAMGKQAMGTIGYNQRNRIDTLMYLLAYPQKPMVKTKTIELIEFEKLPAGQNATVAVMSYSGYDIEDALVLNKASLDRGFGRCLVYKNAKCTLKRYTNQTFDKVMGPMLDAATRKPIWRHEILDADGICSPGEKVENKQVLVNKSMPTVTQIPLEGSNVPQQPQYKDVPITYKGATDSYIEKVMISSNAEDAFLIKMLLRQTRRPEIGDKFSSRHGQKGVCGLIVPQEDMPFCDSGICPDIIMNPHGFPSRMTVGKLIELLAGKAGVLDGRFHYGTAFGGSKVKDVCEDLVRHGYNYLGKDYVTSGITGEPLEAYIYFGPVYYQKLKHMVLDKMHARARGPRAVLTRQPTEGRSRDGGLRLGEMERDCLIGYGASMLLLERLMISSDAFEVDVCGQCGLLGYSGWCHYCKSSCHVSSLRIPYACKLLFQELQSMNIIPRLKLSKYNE
UniProt Q9NV31: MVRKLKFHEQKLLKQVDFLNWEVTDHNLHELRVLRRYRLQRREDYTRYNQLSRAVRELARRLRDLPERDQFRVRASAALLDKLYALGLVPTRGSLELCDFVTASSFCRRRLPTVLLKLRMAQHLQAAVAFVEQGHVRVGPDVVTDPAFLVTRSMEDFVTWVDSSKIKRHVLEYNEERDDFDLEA
UniProt Q9NRS6: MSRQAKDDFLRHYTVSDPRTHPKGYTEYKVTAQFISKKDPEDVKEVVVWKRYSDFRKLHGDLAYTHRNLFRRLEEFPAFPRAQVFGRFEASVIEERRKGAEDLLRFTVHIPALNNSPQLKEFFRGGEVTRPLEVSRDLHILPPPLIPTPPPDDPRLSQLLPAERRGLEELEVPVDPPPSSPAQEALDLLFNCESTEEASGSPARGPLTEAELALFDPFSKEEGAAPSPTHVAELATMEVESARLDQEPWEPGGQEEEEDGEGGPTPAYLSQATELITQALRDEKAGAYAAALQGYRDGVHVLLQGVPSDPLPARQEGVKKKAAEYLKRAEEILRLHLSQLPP
UniProt Q9NSQ0: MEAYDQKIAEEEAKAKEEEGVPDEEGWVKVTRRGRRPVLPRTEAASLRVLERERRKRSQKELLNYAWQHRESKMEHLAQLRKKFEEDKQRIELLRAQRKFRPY
UniProt Q9NRY2: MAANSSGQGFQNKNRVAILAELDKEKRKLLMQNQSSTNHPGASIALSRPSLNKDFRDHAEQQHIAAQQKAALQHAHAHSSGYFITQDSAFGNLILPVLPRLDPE
UniProt Q9NWS0, whole entry: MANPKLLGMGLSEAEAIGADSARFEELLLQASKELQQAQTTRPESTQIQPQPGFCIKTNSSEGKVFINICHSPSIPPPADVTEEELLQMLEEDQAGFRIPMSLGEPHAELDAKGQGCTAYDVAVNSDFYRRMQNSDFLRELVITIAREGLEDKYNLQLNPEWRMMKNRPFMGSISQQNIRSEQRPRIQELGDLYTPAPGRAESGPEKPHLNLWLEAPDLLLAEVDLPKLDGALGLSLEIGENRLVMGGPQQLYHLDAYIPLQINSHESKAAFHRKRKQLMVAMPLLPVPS

| Target | log2 fold change |
| --- | --- |
| NRBP2 (peptide sequence: VTEEAIAR, peptide start residue: 262) (UniProt Q9NSY0) | -0.293 |
| UniProt Q9NQG6 (peptide sequence: KGQVDLKK, peptide start residue: 121) | -0.0916 |
| RPRD1B (peptide sequence: LSELSNSQQSVQTLSLWLIHHR, peptide start residue: 13) (UniProt Q9NQG5) | 0.522 |
| POLR3B (peptide sequence: VILIQEQLSK, peptide start residue: 177) (UniProt Q9NW08) | -0.426 |
| IMP3 (peptide sequence: QVDFLNWEVTDHNLHELR, peptide start residue: 15) (UniProt Q9NV31) | 0.117 |
| SNX15 (peptide sequence: DGVHVLLQGVPSDPLPARQEGVK, peptide start residue: 297) (UniProt Q9NRS6) | -0.267 |
| AURKAIP1 (peptide sequence: EAPEGWQTPK, peptide start residue: 184) (UniProt Q9NWT8) | -0.0666 |
| UniProt Q9NSQ0 (peptide sequence: MEHLAQLR, peptide start residue: 251) | -0.0547 |
| UniProt Q9NRY2 (peptide sequence: VAILAELDKEK, peptide start residue: 16) | -0.446 |
| SDAD1 (peptide sequence: MSLDVMIELYRR, peptide start residue: 179) (UniProt Q9NVU7) | 0.31 |
| PIH1D1 (peptide sequence: RMQNSDFLR, peptide start residue: 131) (UniProt Q9NWS0) | -0.248 |

Two records drawn at random from those above, as already listed:

| Target | log2 fold change |
| --- | --- |
| RPRD1B (peptide sequence: LSELSNSQQSVQTLSLWLIHHR, peptide start residue: 13) (UniProt Q9NQG5) | 0.522 |
| POLR3B (peptide sequence: VILIQEQLSK, peptide start residue: 177) (UniProt Q9NW08) | -0.426 |
